In article PMC3352087 one finds binding data, which are given here for 5 molecules.

Positions count from the first letter of the chain named. Names and notes keep the numbering of the source. Results are given in words; binding and its absence hold for the method and conditions named. Some binding calls cover weakened binding; strength is not graded here.

B1: Cnd1 (protein, UniProt O94679 1-1158)
chain: MSLDLLSRLKKYIHDEENSDLDSIYAECENAGLTAVVNDVIDTLLLGTSSCFDEDCLEKLFAICSHFADLSSSVRNKVYDLLTSNISSESAILEDMISANATDFTVPQTNLETTGIAFQLTVNSLSSSNQLSVIRSSTNTVKGRKKNPTTNSNWNGISHVNALLDAIITLFQKKLSRVWTTSSERDMFLSLFLKPIYTLMESEINIKNASFRSRLFNIIGLAVQFHNHTTAAETNIIQNLQYFEHLSEYAADLVHIVTVQFNSVTLAEGIIRTLCSLEFNDNDVKGPKQVALFLVRLSSLIPNLCLKQLTQLVKLLDSESYTLRCAIIEVLANVVIDQIHDEAQNEMSESVPATVQSLMDLLSERLLDISPYCRTKVLHVFIKIFDLPIKYPRKRQEIAELVIRCLQDRSSHVRRNAIKLFSKLLTTHPFSVMHNGLLTRNIWEKGLSIIEEQLNSLQPKQQEKVVDSELEVDENLLEDATMIQDDESHEGESHLENSLSEYVDSVPAEEIVKVNLTKRFYLEALQYIDIVEAGAKIISQLLFAKNKSEVIESMDFFVFCNSFGISSSKLYIKKMIHLIWVKGTSDEGNNIQNHVLSCYKTLFFEPPPNSGTNEAANYIARNLISLTYDASLAELTSLEQMLCILMKDGYFSHLVITKLWQVYSYQKKDISRTQRRGSIIVIGMLALGNTDVVMQGLDHLIQIGLGPPGLEDLVLARYTCIAIKRIGKDASGSSNINFPNSHTLCQKLCMLLLRPSFSEEWFGLEEQAIEAIYAVAKHPDELCTNIILLLTKQLFKPSNHENTTSNDDHAMDEDLDDSPEEETLKDEEEIGIRLAHLIFLVGHVAIKQLVYIEYCEAEFKRRKADAERLAVQNSNNPINGQETSEYDLITGTSEDDFSEAMTFIRERELLYGENSLLSRFAPLVVELCSNHKSHNNQSLLLAASLTLSKFMCLSNNFCMEHLPLLITILEKCDNPIIRNNLVIGLADLTVCFNHFIDEISEYLYRRLMDEESSVKKTCFMTLAFLILAGQIKVKGQLGIMARSLEDEDARISDLARMFFTDFAAKDNSVYNNFIDIFSVLSRSAEEQDEDDAKFKRIIRFLTSFIEKERHTKQLAERLAARLDRCKTQRQWDHVVYALSLLPHKADNIQKLIDDGYHE
B2: Cnd3 (protein, UniProt Q10429 1-875)
chain: MSCIQIISSSQTSIAGHRKLCNKLFTLRTQEGFETDILRALNIILTVKKGNSNADRVLRFLVTFVNYLQQKDPEIDIVQPILKHILRGLDAKDKTVRYRCCQIIARVVNCVKEIDDDLYNTLKEKLLSRVLDRESIVRLEAVVALSRLQEDTGDEENDVRNILLFLLQNDPSSEVRRSVLLNIEVSNSTLPFILERARDVDAANRKCVYARVLPKIGDFRYLSIKKRVRILKWGLNDRDESVEKAAADMLAYQWIENADNNLLELLERLDVSNNSDVAVLAIKKFFDVRVDSLSQLEFPEQFWLELTAESSLLARTFNEICIEKNYTDLLDKMPEVVQLTYYIERQYVSLRDKSSYDESCFIIEQLLYIGLSQDMVDEIGRRKLLKSLTNSLSTMALPDSLISLHIELLRKLCSSENDFCSLLVEIITEVFEQGHSQNQTEEQGNSNAPELNKNDYEGEEITVSQKSPSPSLPPNELNEPEPDDMDGYKEAFNELRCLSYVQCLFENITSSLNENLYMVDMLKTLIIPAVRSHDLPIREKGLECLSLVCLLNADLAFENVPLYLHCYEKGSVVLKCTAIRTLTDMLIQHGKAKFTEYEDAISSILFEALGEFENAELQTLGAEAIAKLLVILHYRDELFLKPLIIQYFEPNTVDNHALRQVLGYFFPVYAFGAHENQWRIATIFCDALLSLLEIYRDLDEDDVQLSIGHIAQQMLDWTDNEKLYERKTQTGDDYIALNHNVHLHLANMIFESLPNASEGKERKFMISLLGKLKIPTDLPSSDYQRTKRKLETYESHGFTMDSTSLSILAKFERMLLQNEEARSKFEETEEERLMENAEENEHAGAEAISGEIIPDTVEANMEDEEEVYVKQEEDL
B3: Cut14 (protein, UniProt P41003 1-1172)
chain: MKIEELIIDGFKSYAVRTVISNWDDQFNAITGLNGSGKSNILDAICFVLGITNMSTVRAQNLQDLIYKRGQAGITRASVTIVFNNRDPASSPIGFENHPQVSVTRQIIMGGTSKYLINGHRALQQNVQNLFQSVQLNINNPNFLIMQGRITKVLNMKATEILSMIEEASGTRMFEERKEKAFRTMQRKEAKVEEINTLLREEIEPRLTKLRTEKKTFLEYQHIYNDLERLSHLCTAYDYYKLSLKVEELTVQASQKHSHIAEMESSLQTSKQEVLILKEKIKKIEDERMRQMSVSSDRTLDSQLQTVNENITRISTSIELKNTALEEEHGDLQQIRGKAKELETLLRGKRKRLDEVLSVYEKRKDEHQSISKDFKSQEELISSLTTGLSTTEGHETGYSRKLHEARDTLNDFKAEKETNRLKLEGLNKQISLTKPKKAEATKRCDQLNREIDILQNHVEKLKMSLKNTNSDITGEDVLQQKLKQLAKDRGNLLNELDALKSKLAYMEFTYTDPTPNFDRSKVKGLVAQLLTLNEENYDKQTALEITAGGRLYNLIVETEKIGAQLLQKGNLKRRVTIIPLNKITSFVASAERVGAAKKISNNKAQLALELIGYDDELLPAMQYVFGSTLVCDTPESAKKVTFHPSVKLKSVTLDGDVYDPSGTLTGGSVNKSAGPLLQIQKLNSLQLKLQVVTSEYEKLETQLKDLKTQNANFHRLEQEIQLKQHELTLLIEQRETDSSFRLLSDYQQYKDDVKDLKQRLPELDRLILQSDQAIKKIERDMQEWKHNKGSKMAELEKEFNQYKHKLDEFTPILEKSENDYNGVKLECEQLEGELQNHQQSLVQGESTTSLIKTEIAELELSLVNEEHNRKKLTELIEIESAKFSGLNKEIDSLSTSMKTFESEINNGELTIQKLNHEFDRLEREKSVAITAINHLEKENDWIDGQKQHFGKQGTIFDFHSQNMRQCREQLHNLKPRFASMRKAINPKVMDMIDGVEKKEAKLRSMIKTIHRDKKKIQDTVKSIDRFKRSALEKTWREVNSSFGEIFDELLPGNSAELQPPENKEFTDGLEIHVKIGSIWKDSLAELSGGQRSLVALALIMSLLKYKPAPMYILDEIDAALDLSHTQNIGRLIKTKFKGSQFIIVSLKEGMFTNANRLFHVRFMDGSSVVQAR
B4: Cut14-Y1 mutant protein (L543S) (protein, UniProt P41003 1-1172)
chain: B3 chain with L543S
B5: Cnd2 (protein, UniProt Q9Y7R3 1-742)
chain: MKRASLGGHAPVSLPSLNDDALEKKRAKENSRKQRELRRSSALHSITPRRESLNNSSPFNSSHQVPVLSNFEEWIKLATDNKINSTNTWNFALIDYFHDMSLLRDGEDINFQKASCTLDGCVKIYTSRIDSVATETGKLLSGLANDSKVLQQTEEGEDAENDDEDLQKKKERKRAQRSVKTLVKDFESIRAKKFELECSFDPLFKKMCADFDEDGAKGLLMNHLCVDQHGRIVFDSSDTVIKDLENKDVEAESQEAVVAAPIESHDTEMTNVHDNISRETLNGIYKCYFTDIDQLTICPSLQGFEFDSKGNLDVSLLKSLSDEVNMITTTSLVDNTMEKTDADAASLSSDSDGEEGHIVHALEEMAYDEENPYVDVVPKAMDESENPDFGVDTEVNMADGSTMNENYSIISTAAANGVYEYFDKSMKKNWAGPEHWRIQALRKNINNASTVFNSSNTAESSDNVSRSLSSTERKKRRELDNAIDFLQEVDVEALFTPATSSLKLPKSHWKRHNRCLLPDDYQYDSKRLLQLFLKPKMSVLPNADGEGQLQLNKALDDENDLDGIQPHGFDSDGSDNVDEGIPPYGFGDSDSPKQTPLLTPPSSSGFGDNLLLTARLAKPDMLNYAKRAKKVDVRVLKEKLWKCLDLENTIKENSINSHIEGSEMESEETNMPVKSFFSTVNQLEETYEKKELKDISTSFAFICVLHLANEHNLELTSNEDFSDVFIRPGPNLTTLEALENDV

The target in the first assay is T1, Cnd2 (S. pombe) (UniProt Q9Y7R3).
T1 sequence: B5 chain
Put plainly: co-purification (affinity chromatography, SDS-PAGE); subunits simultaneously overexpressed in S. pombe cells; complexes purified as in refs 20,21; SDS-PAGE stained with Coomassie brilliant blue; bait and tag not stated.
As for B1, the binding entry was “binds”. On the same count and under the same terms, to B2 belongs “binds”.

The target in the next assay is T2, Cut3 (S. pombe) (UniProt P41004).
T2 sequence: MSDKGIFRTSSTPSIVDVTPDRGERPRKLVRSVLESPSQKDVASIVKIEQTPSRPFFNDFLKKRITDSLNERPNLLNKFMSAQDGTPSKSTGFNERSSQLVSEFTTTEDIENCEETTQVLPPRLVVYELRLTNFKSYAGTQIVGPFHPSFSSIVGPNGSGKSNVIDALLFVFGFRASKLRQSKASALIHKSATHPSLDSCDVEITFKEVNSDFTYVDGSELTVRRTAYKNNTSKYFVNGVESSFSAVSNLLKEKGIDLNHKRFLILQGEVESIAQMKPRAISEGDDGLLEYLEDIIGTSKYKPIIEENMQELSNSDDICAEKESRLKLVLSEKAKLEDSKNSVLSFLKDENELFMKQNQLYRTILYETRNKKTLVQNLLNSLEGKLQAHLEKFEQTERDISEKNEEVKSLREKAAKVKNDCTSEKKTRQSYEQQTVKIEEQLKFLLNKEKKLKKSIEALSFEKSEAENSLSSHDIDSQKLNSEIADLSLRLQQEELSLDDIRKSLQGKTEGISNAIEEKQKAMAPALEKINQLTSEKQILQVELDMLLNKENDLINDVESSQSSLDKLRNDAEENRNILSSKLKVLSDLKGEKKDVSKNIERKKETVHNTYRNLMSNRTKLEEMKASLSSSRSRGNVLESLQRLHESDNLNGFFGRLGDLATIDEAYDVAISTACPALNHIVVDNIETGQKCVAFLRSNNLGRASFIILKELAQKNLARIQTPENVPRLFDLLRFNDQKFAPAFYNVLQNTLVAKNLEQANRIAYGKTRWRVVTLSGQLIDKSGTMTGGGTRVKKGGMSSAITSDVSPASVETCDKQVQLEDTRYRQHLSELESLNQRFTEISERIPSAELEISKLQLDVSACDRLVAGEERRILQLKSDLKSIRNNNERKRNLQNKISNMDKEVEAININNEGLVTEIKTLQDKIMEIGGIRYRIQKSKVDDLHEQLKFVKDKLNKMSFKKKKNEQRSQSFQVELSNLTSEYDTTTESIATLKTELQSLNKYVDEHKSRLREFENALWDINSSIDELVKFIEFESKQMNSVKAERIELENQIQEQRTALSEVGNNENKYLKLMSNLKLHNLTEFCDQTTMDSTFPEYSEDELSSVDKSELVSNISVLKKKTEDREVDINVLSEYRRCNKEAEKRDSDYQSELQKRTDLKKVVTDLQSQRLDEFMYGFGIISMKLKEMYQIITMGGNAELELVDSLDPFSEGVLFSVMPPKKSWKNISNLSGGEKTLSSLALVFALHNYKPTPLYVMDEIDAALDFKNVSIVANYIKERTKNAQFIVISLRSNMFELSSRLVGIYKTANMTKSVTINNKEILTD
The assay is described as above.
Take B3: the binding result was “binds”. Consider B4, for which the binding result was “binds”. In the case of B1, the binding entry is reported as “binds”. Same read-out and setting: for B5 the value was “binds”; for B2, “binds”.
